Assay results as given in patent US20170114412A1.

Molecular target: cytoplasmic domain of nephrin (yeast two-hybrid construct)
Test: yeast two-hybrid

- binding: no binding
B1: Robo2 intracellular domain (human), fused to the transcription activation domain of B42 (receptor, not shown: large carriers)
chain: YWRRKKRKGLSNYAVTFQRGDGGLMSNGSRPGLLNAGDPSYPWLADSWPATSLPVNNSNSGPNEIGNFGRGDVLPPVPGQGDKTATMLSDGAIYSSIDFTTKTSYNSSSQITQATPYATTQILHSNSIHELAVDLPDPQWKSSIQQKTDLMGFGYSLPDQNKGNNGGKGGKKKKNKNSSKPQKNNGSTWANVPLPPPPVQPLPGTELEHYAVEQQENGYDSDSWCPPLPVQTYLHQGLEDELEEDDDRVPTPPVRGVASSPAISFGQQSTATLTPSPREEMQPMLQAHLDELTRAYQFDIAKQTWHIQSNNQPPQPPVPPLGYVSGALISDLETDVADDDADDEEEALEIPRPLRALDQTPGSSMDNLDSSVTGKAFTSSQRPRPTSPFSTDSNTSAALSQSQRPRPTKKHKGGRMDQQPALPHRREGMTDEEALVPYSKPSFPSPGGHSSSGTASSKGSTGPRKTEVLRAGHQRNASDLLDIGYMGSNSQGQFTGEL

Results are given in words; binding and its absence hold for the method and conditions named. Sequences can lack the tags named with a protein.
